Measurements from PMC6834558.
Results are given in words; binding and its absence hold for the method and conditions named. In cells and extracts the contact can be indirect. Here binding means that the protein was enriched with, or labelled near, the bait; the list need not be complete. Sequences can lack the tags named with a protein.

Target: T1, EGFL9-V5 (overexpressed in HMLE/EGFL9 cells) (UniProt Q6UY11)
T1 sequence: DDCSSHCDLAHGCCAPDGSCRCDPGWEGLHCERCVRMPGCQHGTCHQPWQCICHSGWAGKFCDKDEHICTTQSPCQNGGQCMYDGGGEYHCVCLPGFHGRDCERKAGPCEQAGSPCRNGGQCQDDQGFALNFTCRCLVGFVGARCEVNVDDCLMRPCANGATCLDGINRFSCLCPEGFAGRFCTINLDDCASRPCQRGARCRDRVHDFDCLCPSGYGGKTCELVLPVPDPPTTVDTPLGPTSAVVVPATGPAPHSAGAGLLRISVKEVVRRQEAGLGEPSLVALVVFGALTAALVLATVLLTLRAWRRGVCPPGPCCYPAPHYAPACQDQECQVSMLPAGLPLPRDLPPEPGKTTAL
Experiment: affinity purification with mass spectrometry; EGFL9 IP from mitochondria purified from HMLE/EGFL9 cells, followed by mass spectrometry

- binding: binds
B1: COA3 (endogenous, mitochondria of HMLE/EGFL9 cells) (protein, UniProt Q9Y2R0 1-106)
chain: MASSGAGDPLDSKRGEAPFAQRIDPTREKLTPEQLHSMRQAELAQWQKVLPRRRTRNIVTGLGIGALVLAIYGYTFYSISQERFLDELEDEAKAARARALARASGS
